Laboratory results from PMC9136110.
These are yes or no findings as the source states them, for the method shown. Binding seen in cells or lysates may run through a third protein. Binding can be weak; no strength is given.

The chains behind the UniProt entries cited, without tags or fusion partners. Where a name states a change or a piece, a line headed by the entry shows the natural chain unless it says otherwise.
UniProt P45481: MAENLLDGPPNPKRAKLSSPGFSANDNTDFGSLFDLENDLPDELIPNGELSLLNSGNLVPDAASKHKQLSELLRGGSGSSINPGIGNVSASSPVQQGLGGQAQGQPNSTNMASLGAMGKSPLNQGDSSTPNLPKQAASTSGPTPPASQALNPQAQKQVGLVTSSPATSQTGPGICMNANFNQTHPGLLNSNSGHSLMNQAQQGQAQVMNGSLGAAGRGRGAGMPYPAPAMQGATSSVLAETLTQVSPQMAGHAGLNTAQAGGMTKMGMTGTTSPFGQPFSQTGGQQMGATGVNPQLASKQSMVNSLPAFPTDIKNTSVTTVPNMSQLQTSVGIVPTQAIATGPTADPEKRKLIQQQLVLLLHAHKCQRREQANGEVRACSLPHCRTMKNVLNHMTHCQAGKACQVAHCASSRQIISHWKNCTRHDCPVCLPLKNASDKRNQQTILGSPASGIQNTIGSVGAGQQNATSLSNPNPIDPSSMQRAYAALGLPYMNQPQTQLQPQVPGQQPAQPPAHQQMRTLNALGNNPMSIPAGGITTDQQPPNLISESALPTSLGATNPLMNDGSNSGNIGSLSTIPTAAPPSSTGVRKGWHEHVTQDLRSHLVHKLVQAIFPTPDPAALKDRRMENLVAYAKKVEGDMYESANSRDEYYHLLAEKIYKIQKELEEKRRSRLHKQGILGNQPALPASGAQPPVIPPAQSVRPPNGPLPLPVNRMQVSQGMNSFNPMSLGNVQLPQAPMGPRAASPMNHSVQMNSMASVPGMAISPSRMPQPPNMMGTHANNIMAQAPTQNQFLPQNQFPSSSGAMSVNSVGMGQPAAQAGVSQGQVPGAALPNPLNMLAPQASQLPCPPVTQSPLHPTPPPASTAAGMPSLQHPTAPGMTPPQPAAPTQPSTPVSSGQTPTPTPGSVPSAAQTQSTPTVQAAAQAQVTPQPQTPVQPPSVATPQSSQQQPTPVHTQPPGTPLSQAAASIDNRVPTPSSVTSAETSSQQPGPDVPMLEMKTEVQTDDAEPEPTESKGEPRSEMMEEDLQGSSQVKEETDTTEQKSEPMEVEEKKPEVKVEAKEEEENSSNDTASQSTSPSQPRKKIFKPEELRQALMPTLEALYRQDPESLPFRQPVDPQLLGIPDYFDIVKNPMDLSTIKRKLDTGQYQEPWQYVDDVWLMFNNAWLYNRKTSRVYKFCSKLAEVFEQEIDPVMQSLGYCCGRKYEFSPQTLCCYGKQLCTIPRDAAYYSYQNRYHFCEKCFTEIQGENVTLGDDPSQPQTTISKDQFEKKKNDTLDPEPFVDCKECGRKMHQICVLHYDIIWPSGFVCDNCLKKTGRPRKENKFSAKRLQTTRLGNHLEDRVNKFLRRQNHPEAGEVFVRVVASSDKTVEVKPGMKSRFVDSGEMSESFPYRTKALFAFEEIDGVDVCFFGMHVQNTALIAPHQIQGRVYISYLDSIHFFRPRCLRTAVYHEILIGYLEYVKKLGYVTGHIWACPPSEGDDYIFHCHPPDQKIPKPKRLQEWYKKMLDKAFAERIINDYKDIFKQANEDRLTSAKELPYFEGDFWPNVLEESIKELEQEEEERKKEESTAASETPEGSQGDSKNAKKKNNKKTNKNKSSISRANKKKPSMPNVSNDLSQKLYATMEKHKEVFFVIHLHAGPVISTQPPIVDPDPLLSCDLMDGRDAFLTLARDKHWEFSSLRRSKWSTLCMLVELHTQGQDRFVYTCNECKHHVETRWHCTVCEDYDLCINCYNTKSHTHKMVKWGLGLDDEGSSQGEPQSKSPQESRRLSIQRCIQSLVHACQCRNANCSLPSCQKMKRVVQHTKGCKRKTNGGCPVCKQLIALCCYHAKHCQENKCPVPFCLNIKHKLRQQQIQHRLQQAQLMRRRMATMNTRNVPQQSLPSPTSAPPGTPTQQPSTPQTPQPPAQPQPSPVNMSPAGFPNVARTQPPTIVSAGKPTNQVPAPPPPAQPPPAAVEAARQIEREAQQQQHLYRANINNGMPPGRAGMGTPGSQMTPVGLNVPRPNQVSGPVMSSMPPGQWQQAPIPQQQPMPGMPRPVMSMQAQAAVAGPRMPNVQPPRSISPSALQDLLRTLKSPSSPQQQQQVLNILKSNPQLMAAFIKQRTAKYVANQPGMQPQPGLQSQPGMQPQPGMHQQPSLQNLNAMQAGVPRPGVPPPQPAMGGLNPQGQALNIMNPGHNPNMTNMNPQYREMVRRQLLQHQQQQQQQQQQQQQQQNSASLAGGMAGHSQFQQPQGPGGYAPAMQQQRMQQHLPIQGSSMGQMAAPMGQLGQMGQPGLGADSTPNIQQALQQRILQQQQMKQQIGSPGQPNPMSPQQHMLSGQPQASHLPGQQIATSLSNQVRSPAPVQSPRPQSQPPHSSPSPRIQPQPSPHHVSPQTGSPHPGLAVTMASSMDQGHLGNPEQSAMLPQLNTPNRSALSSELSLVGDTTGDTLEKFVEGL
UniProt Q7KZI7: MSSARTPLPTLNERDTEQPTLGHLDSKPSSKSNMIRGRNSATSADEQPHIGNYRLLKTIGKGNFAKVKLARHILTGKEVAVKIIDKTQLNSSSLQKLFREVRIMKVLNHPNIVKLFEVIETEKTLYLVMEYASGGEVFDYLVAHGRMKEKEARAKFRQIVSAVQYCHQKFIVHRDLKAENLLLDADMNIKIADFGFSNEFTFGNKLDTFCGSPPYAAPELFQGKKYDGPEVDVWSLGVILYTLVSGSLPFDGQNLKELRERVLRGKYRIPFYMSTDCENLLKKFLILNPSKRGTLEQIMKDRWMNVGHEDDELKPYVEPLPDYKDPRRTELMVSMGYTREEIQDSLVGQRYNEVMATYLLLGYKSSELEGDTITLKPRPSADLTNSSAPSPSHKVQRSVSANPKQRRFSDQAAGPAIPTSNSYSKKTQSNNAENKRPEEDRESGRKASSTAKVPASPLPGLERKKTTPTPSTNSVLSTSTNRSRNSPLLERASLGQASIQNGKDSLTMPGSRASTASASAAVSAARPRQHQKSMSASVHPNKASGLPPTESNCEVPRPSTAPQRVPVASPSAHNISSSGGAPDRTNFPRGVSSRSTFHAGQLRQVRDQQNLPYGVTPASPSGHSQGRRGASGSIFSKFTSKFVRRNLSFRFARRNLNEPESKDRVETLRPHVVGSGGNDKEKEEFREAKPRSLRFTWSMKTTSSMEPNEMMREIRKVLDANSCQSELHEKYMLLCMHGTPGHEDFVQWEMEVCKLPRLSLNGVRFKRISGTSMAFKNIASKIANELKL

Target: FLAG-tagged WT full-length CREB-binding protein (CBP-WT) (UniProt P45481)
Assay: co-IP; 293A cells co-transfected with FLAG-tagged CBP and Myc-tagged MARK2 variants; lysed in low stringency NETN buffer (50 mM Tris-HCl pH 7.4, 150 mM NaCl, 1 mM EDTA, 1% NP-40); FLAG pull-down on protein A/G beads overnight; immunoblot for Myc-MARK2

Substance: Myc-tagged WT full-length microtubule affinity-regulating kinase 2 (MARK2-WT) (from UniProt Q7KZI7 1-788) (enzyme)
- binding: binds weakly
